Assay results reported in the supplement of paper PMC12823440, “Inhibitors supercharge kinase turnover through native proteolytic circuits” (Nature, 2025).
Where a name gives a salt, the structure may show the parent alone. The list shows a part of the results. Hit calls seldom repeat between salt and free forms of one compound.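 Kinases were expressed as nanoluciferase fusions in K562 cells and luminescence was read every 4 h between 2 and 18 h as percent of control, DMSO set to 100% and a positive control to 0%. A time point counts as decreased when the signal drops significantly (2 sigma). The hit call is the authors' own, does not follow from the count of time points alone, and its rule is not shown.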

By UniProt entry, the sequences of proteins in these tests, tags left out. Where a name states a change or a piece, a line headed by the entry shows the natural chain unless it says otherwise.
UniProt Q9UM73: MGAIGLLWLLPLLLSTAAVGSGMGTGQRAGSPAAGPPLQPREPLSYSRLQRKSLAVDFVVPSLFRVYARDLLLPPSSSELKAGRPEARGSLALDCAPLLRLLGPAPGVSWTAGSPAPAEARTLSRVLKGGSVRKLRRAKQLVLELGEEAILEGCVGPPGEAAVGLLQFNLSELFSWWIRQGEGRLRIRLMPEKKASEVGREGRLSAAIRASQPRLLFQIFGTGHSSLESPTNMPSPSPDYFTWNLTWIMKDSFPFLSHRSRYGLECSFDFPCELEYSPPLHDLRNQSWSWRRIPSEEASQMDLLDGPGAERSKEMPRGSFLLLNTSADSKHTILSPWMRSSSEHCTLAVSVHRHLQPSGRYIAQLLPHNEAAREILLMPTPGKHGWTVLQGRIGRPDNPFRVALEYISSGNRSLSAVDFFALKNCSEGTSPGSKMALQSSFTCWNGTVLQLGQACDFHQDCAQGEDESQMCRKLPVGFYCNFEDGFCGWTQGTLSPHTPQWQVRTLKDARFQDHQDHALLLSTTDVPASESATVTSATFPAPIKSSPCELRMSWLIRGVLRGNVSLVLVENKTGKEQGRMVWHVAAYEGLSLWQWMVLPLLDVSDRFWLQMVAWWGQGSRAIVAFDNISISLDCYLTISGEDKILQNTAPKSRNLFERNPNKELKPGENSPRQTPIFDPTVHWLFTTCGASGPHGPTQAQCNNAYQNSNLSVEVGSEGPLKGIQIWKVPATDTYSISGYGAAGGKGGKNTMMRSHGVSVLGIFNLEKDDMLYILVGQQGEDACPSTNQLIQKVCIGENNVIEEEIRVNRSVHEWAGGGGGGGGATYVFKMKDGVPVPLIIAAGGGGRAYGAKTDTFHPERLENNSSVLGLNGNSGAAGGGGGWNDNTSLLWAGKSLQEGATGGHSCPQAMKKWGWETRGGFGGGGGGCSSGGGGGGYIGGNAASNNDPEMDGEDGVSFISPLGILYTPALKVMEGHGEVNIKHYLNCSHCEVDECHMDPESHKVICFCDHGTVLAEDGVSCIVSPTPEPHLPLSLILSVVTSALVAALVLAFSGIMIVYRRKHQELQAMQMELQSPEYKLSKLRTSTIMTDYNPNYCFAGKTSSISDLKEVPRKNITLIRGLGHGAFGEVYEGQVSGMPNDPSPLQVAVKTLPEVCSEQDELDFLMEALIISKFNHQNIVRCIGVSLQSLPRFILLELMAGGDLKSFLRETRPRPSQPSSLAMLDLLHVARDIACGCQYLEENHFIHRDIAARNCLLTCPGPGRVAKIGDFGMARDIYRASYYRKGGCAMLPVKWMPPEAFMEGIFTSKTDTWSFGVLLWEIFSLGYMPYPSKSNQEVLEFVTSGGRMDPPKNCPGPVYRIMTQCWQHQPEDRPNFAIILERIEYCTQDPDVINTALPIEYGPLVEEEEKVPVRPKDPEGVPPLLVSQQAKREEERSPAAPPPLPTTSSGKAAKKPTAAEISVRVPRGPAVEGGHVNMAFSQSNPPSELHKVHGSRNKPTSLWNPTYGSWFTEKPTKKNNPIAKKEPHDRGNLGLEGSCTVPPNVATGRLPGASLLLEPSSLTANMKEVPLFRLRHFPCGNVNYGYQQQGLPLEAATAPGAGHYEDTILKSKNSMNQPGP
UniProt P10398: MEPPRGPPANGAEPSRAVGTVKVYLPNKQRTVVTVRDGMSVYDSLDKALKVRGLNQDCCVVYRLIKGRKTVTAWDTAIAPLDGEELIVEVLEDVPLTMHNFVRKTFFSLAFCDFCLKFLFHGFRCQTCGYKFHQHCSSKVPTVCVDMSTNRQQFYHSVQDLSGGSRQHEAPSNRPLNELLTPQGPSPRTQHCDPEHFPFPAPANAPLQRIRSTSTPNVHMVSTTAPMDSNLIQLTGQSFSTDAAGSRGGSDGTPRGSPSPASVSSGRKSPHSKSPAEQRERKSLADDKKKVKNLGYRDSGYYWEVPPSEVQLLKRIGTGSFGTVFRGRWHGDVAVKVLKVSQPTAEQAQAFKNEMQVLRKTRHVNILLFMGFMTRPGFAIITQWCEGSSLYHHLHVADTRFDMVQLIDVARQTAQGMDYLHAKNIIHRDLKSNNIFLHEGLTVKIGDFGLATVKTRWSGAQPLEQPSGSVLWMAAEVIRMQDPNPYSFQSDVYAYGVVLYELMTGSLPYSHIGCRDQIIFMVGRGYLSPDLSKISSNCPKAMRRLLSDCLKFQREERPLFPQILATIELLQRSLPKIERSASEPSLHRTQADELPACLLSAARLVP
UniProt O14965: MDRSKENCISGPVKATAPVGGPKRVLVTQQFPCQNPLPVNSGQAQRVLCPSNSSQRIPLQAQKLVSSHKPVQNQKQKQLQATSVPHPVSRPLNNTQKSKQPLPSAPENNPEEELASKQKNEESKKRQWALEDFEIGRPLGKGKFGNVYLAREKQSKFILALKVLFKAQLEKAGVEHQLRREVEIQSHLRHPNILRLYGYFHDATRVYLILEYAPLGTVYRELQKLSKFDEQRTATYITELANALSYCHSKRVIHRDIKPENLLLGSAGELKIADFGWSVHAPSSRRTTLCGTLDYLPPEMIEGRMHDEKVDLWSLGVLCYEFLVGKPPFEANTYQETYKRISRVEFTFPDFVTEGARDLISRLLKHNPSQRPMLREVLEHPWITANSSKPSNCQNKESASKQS
UniProt Q96GD4, whole entry: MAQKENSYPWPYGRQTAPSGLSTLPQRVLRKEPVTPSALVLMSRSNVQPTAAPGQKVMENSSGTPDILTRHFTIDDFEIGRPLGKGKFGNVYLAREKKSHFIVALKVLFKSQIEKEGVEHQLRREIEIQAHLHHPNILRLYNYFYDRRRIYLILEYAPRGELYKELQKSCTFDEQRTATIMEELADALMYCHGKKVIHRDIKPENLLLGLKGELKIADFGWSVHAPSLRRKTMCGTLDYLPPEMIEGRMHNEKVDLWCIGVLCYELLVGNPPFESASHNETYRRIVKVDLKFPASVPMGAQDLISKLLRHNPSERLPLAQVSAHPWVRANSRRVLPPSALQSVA
UniProt Q9UQB9: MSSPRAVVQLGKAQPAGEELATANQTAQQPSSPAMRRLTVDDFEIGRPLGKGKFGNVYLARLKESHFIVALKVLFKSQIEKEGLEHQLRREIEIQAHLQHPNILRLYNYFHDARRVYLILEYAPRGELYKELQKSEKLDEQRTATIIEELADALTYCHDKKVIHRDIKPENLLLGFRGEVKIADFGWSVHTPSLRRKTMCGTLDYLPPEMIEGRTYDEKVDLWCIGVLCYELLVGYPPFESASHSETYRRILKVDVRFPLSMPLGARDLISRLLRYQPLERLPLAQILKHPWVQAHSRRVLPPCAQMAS
UniProt P51451: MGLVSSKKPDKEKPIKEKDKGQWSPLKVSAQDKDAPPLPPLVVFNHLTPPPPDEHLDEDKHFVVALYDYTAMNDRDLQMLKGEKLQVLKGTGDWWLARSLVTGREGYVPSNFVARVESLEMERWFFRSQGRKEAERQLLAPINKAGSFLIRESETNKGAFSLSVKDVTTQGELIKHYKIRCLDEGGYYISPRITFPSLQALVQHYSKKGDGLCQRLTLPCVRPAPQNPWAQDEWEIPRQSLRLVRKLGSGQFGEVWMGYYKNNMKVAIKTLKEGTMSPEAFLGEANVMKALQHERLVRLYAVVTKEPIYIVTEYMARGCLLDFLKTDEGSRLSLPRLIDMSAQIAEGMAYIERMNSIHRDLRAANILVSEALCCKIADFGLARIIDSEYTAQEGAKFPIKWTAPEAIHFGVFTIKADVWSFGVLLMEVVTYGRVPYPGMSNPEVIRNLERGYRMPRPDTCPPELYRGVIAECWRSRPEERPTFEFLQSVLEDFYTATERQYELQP
UniProt P51813: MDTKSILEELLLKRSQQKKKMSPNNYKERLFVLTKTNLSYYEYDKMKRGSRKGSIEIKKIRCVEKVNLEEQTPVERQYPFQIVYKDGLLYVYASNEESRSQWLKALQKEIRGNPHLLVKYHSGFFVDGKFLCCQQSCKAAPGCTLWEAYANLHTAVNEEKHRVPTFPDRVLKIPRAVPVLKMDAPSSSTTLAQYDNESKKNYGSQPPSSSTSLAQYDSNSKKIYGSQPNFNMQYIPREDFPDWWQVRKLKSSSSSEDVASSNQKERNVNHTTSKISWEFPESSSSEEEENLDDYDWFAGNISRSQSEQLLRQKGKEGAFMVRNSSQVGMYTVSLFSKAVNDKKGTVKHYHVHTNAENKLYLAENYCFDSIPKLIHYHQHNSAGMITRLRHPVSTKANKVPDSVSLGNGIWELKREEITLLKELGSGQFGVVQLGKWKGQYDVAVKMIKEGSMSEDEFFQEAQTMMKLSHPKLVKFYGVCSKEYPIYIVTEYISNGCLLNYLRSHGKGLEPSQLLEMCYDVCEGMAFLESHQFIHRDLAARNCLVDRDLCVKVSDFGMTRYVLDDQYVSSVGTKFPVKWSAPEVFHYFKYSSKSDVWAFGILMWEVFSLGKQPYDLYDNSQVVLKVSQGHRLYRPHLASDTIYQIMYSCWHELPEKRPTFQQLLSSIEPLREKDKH
UniProt Q06187: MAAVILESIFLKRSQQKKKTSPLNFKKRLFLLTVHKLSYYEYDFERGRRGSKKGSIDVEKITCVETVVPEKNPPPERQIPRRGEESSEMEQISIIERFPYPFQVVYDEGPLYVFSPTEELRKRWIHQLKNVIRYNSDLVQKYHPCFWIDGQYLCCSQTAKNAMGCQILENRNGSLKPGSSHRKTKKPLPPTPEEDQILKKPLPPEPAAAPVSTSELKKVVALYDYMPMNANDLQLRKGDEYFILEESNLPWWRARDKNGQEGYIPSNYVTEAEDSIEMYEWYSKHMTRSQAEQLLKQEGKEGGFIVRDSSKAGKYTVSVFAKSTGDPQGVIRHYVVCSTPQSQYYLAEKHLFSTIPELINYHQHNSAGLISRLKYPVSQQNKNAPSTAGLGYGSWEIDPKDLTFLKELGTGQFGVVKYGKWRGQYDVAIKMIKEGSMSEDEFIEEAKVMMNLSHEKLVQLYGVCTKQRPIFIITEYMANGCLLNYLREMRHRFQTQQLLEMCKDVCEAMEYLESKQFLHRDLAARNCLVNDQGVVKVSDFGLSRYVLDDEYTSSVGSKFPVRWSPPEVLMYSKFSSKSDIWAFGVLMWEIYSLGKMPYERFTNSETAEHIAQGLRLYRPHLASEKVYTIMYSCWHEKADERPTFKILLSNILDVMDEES
UniProt P15056, whole entry, looked up: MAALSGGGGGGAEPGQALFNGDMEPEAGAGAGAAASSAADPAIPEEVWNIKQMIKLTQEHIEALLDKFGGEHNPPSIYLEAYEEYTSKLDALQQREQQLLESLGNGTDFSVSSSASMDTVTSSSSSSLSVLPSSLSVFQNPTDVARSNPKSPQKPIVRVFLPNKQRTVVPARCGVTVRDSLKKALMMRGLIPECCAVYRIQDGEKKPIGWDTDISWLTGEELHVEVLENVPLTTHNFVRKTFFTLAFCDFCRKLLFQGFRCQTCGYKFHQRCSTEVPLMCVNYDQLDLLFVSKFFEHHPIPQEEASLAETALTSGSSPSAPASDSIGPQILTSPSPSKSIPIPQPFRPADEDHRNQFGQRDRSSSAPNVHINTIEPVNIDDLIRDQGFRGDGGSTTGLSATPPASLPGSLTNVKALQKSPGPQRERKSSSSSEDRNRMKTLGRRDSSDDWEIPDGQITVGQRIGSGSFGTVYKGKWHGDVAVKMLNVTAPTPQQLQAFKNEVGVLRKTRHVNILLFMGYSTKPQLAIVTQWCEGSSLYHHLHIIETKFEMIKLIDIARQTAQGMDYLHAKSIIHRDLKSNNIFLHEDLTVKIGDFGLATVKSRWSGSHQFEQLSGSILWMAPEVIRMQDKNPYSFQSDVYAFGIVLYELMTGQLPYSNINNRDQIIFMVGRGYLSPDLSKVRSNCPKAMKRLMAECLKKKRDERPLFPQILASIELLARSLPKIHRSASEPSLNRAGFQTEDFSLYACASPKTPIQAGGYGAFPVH

Experiments:
Assay in all cases: number of time points (of 5) at which kinase-Nluc abundance scored as decreased, DMSO-normalised (count); higher = more persistent destabilization
Conditions in all cases: K562; 2-18 h
ALK = ALK (UniProt Q9UM73)
ARAF = ARAF (UniProt P10398)
AURKA = AURKA (UniProt O14965)
AURKB = AURKB (UniProt Q96GD4)
AURKC = AURKC (UniProt Q9UQB9)
BLK = BLK (UniProt P51451)
BMX = BMX (UniProt P51813)
BRAF_V600E = test system: BRAF_V600E
BTK = BTK (UniProt Q06187)
BRAF = BRAF (UniProt P15056)

Structure (SMILES)	number of time points (ALK)	number of time points (ARAF)	number of time points (AURKA)	number of time points (AURKB)	number of time points (AURKC)	number of time points (BLK)	number of time points (BMX)	number of time points (BRAF_V600E)	number of time points (BTK)	number of time points (BRAF)
CN1CCN(c2ccc(C(=O)Nc3n[nH]c4ccc(Cc5cc(F)cc(F)c5)cc34)c(NC3CCOCC3)c2)CC1 [Entrectinib] (2.5 µM)	0	0	0	0	0	0	0	0	0	
CNC(=O)c1cccc2cc(Oc3ccnc4cc(OCC5(N)CC5)c(OC)cc34)ccc12 [Lucitanib] (10 µM)	0	0	0	0	0	0	0	0	0	
COc1cc2ncnc(Nc3ccc(O)cc3)c2cc1OC (10 µM)	0	0	0	0	0	0	0	0	0	
COc1ccc(Oc2cc(NCCC(F)(F)F)c3ncc(-c4ccc(C(=O)NC5CC5)c(C)c4)n3n2)c(F)c1F (2.5 µM)	0	0	0	0	0	0	0		0	0
Cc1nc(N)sc1-c1ccnc(Nc2ccc(N3CCOCC3)cc2)n1 (10 µM)	0	0	3	0	0	0	3	0	0	0
CC#CC(=O)N[C@H]1CCCN(c2c(F)cc(C(N)=O)c3[nH]c(C)c(C)c23)C1 [Branebrutinib] (10 µM)	0	0	0	0	0	0		0	0	0
NC(=O)c1ccc(-c2nc(-c3ccccn3)c(-c3ccc4c(c3)OCO4)[nH]2)cc1 (10 µM)	0	0	0	0	0	0	0	0	0	
COc1c(Cl)cc2c([nH]c3cnccc32)c1NC(=O)c1cccnc1C (10 µM)	0	0	0	0	0	0	0	0	0	
C=CC(=O)N1C[C@H](Nc2ncnc3[nH]ccc23)CC[C@@H]1C [Ritlecitinib] (10 µM)	0	0	0	0	0	0		0	0	0
CC(C)(C#N)c1ccc(N2C(=O)OCc3cnc4ccc(-c5cnc6ccccc6c5)cc4c32)cc1 (2.5 µM)	0	0	0	0	0	0	0	0	0	
CCn1c(=O)c2cc(C(N)=O)c(N)nc2n(C2CC2)c1=O (10 µM)	0	0	0	0	0	0	0		0	0
COCc1c(-c2ccc(NC(=O)Nc3cc(C(F)(F)F)ccc3F)c(F)c2)c2c(N)ncnn2c1CN1CCOCC1 (2.5 µM)	0	0	0	0	0	0	1	0	0	
COc1ccc(NC(=O)N2CCN(c3nc(N)nc4c3cnn4C)[C@@H](C)C2)c(C)c1 (10 µM)	0	0	0	0	0	0	0		0	0
Cc1cc(F)c(C(=O)Nc2cccc(-c3nncn3C(C)C)n2)cc1-n1cnc(C2CC2)c1 [Selonsertib] (10 µM)	0	0	0	0	0	0	0		0	0
O=C(NOC[C@H](O)CO)c1ccc(F)c(F)c1Nc1ccc(I)cc1F (2.5 µM)	0	0	1	0	0	0	0		0	0
COc1cc(C(=O)NC2CCN(C)CC2)c(F)cc1Nc1ncc2c(n1)N(C1CCCC1)CC(F)(F)C(=O)N2C [TAK-960 (dihydrochloride)] (2.5 µM)	0	0	0	0	0	0	0		0	0
CCOc1cc2ncc(-c3cc(N)nc(F)c3)n2cc1S(=O)(=O)C(C)(C)C (10 µM)	0	0	0	0	0	0	0		0	0
COCCOc1cc2nccc(Nc3n[nH]c(C)c3C)c2cc1S(=O)(=O)C(C)(C)C [RIP2 kinase inhibitor 2] (2.5 µM)	0	0	0	0	0	0	0		0	0
Cc1ccc(NC(=O)c2cccc(N(C)C)c2)cc1NC(=O)c1ccc(O)cc1 (10 µM)	0	0	0	0	0	0	0	0	0	
CN(C)Cc1ccc(-c2cnn3c(-c4cccc(NC(=O)c5cccc(C(F)(F)F)c5)c4)ccnc23)cc1 (2.5 µM)	0	0	0	0	0	0	0	0	0	

Random excerpt: 2 entries already listed, in no set order.
Structure (SMILES)	number of time points (ALK)	number of time points (ARAF)	number of time points (AURKA)	number of time points (AURKB)	number of time points (AURKC)	number of time points (BLK)	number of time points (BMX)	number of time points (BRAF_V600E)	number of time points (BTK)	number of time points (BRAF)
CCOc1cc2ncc(-c3cc(N)nc(F)c3)n2cc1S(=O)(=O)C(C)(C)C (10 µM)	0	0	0	0	0	0	0		0	0
CNC(=O)c1cccc2cc(Oc3ccnc4cc(OCC5(N)CC5)c(OC)cc34)ccc12 [Lucitanib] (10 µM)	0	0	0	0	0	0	0	0	0	
